This note sets out measurements from article PMC3458821.

Chains of the proteins cited; added tags and fusions are not shown. Residues count along the entry.
UniProt P34244, residues 667-872: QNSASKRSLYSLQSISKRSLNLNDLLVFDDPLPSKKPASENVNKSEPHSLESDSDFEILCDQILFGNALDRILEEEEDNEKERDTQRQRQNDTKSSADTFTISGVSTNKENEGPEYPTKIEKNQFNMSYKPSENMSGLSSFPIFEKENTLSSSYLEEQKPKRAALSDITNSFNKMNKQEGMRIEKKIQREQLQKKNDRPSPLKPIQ

Substitutions are numbered along the chain they refer to. These are yes or no findings as the source states them, for the method shown. For some assays here: In cells and extracts the contact can be indirect. Some entries that bind do so weakly or less than the wild type. For some assays here: Tags and fused reporters may be left off the sequences shown.

Assay [1] addresses T1, Cdh1-ΔN200 (S. cerevisiae) (UniProt P53197).
T1 sequence: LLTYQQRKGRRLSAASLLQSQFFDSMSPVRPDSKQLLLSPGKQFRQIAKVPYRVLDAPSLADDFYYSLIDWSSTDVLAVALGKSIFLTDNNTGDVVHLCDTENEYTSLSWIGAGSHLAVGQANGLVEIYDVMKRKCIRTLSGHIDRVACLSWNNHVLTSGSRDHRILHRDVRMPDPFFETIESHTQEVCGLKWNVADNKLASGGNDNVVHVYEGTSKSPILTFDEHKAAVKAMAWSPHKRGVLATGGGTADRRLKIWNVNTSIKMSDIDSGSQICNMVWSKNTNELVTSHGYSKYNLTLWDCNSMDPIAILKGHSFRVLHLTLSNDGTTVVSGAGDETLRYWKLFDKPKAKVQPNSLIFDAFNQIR
Description: two-hybrid; pJ69-4a strains with bait plasmids mated with pJ69-4α strains with activation domain plasmids; diploids struck onto plates lacking leucine, tryptophan, histidine and adenine; growth indicates interaction.

Assay [2] has as its target T2, 6xHis-Cdh1 (S. cerevisiae) (UniProt P53197).
T2 sequence: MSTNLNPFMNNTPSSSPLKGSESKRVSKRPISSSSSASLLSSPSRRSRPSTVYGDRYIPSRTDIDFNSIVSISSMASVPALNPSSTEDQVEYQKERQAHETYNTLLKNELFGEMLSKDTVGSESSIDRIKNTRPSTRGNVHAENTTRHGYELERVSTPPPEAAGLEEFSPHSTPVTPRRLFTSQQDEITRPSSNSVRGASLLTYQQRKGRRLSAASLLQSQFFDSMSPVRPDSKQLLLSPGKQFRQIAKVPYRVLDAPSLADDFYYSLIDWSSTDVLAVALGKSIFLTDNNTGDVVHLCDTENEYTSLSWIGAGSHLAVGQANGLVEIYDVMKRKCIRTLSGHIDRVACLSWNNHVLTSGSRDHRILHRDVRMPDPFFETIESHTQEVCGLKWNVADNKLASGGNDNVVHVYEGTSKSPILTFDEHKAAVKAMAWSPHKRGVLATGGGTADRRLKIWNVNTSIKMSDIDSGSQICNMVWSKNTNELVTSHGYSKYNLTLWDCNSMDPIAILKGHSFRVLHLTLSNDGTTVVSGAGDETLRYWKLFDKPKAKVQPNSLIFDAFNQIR
Description: pull-down; 6xHis-Cdh1 on Talon beads or control beads incubated with yeast cell extracts holding TAP-tagged proteins; bound proteins detected with PAP antibodies; only the target purified.

The target in assay [3] is T1, Cdh1-ΔN200 (S. cerevisiae). Description: two-hybrid; data not shown; D-box mutants of Ybr138C with Cdh1.

For “Hsl1 667-872 (from UniProt P34244 667-872) (domain or fragment)”, in assay [1], the binding result is recorded as “binds”.

B1: Mps1-TAP (enzyme, UniProt P54199 1-764)
chain: MSTNSFHDYVDLKSRTNTRQFSDDEEFTTPPKLSNFGSALLSHTEKTSASEILSSHNNDKIANRLEEMDRSSSRSHPPPSMGNLTSGHTSTSSHSTLFGRYLRNNHQTSMTTMNTSDIEINVGNSLDKSFERIRNLRQNMKEDITAKYAERRSKRFLISNRTTKLGPAKRAMTLTNIFDEDVPNSPNQPINARETVELPLEDSHQTNFKETKRNTDYDSIDFGDLNPIQYIKKHNLPTSDLPLISQIYFDKQREENRQAALRKHSSRELLYKSRSSSSSLSSNNLLANKDNSITSNNGSQPRRKVSTGSSSSKSSIEIRRALKENIDTSNNSNFNSPIHKIYKGISRNKDSDSEKREVLRNISINANHADNLLQQENKRLKRSLDDAITNENINSKNLEVFYHRPAPKPPVTKKVEIVEPAKSASLSNNRNIITVNDSQYEKIELLGRGGSSRVYKVKGSGNRVYALKRVSFDAFDDSSIDGFKGEIELLEKLKDQKRVIQLLDYEMGDGLLYLIMECGDHDLSQILNQRSGMPLDFNFVRFYTKEMLLCIKVVHDAGIVHSDLKPANFVLVKGILKIIDFGIANAVPEHTVNIYRETQIGTPNYMAPEALVAMNYTQNSENQHEGNKWKVGRPSDMWSCGCIIYQMIYGKPPYGSFQGQNRLLAIMNPDVKIPFPEHTSNNEKIPKSAIELMKACLYRNPDKRWTVDKVLSSTFLQPFMISGSIMEDLIRNAVRYGSEKPHISQDDLNDVVDTVLRKFADYKI
Regarding B1, in assay [2], the binding entry is given as “binds”.

B2: Ybr138C-3xmdb (two-hybrid prey) (protein, UniProt P38277 1-524)
chain: MEKDQIQPRVLESVDTNSLSLLSSNTSSNMNSNTNNKLSIIASDISTGSVLSRPLTPPVVQDIENNSMLQWQFEKKEFIFDSNSTPSKQAKPLQRNSPYQGNSQSENQNQQLLNVRKRRSQLIGAKPKIPSKLYQSVSKLDLIDDKSFTSLPIAPPCNIETNEDDSGNNEYNNNKKAPRANPVNELRVHNNKRNRYVSYGPSLDTKNYELTENTSQDIPPLVLVEDYIPYTQSKSTKKMVSISDLKSKLSKRRDNHIPLRVKNSYSEINKETNRNSFEPNSLTLIPHILRNTEENRDESNNPLDFIKEEIEISDISIPNSIENMVVNLVNIPSSNKSYDDLYLSELNVHSQLRKCVICEKALYEISSRLLNSGYYKEIVCEQCTVRYEEAAKIFENCEFESSMDESNLSSGTFSDLENSAEPFHLSTDVPKKINRHIEDNKIDLKKEISKKKDSFSKELIEALQAQLLENDKSIKHHFNKDAMGSKSMNWFLEAARKAKWKWRINGLLPHFLRNQNSDRLNFQP
As to B2, the binding entry in assay [3] is “binds”.

B3: Ybr138C-TAP (protein, UniProt P38277 1-524)
chain: B2 chain with A177R, A180L, A462R, A465L, A495R, A498L
Consider B3, for which the binding entry in assay [2] is on record as “binds”.

B4: Ybr138C with the putative D-box 177RPRL mutated (protein, UniProt P38277 1-524)
chain: B2 chain with A462R, A465L, A495R, A498L
On to B4, for which the binding entry in assay [3] is recorded as “binds”.
